{"source": "patent US11439624B2", "about": "“Promoting sleep using AT1 receptor blockers” (UNIVERSITY OF PITTSBURGH—OF THE COMMONWEALTH SYSTEM OF …, priority 2012, dated 2022)", "tested_on": "rats in the stress-induced insomnia model", "experiment": "stress-induced insomnia model in rats (cage exchange; EEG and EMG recording)", "assay_type": "in vivo, rat", "description": "Rats in the stress-induced insomnia model (25) were treated with candesartan intraperitoneally (i.p.; 1 mg/kg or 5 mg/kg). In the model, insomnia is induced by transferring male rats at the peak of their normal sleep cycle into a soiled cage previously occupied during one week by another male rat. This simple procedure induces a psychological or social stress response in the rats, which are very territorial animals. The sequence of sleep disturbances in cage exchanged rats is similar to that observed in humans with primary insomnia. In rats, there is an initial delay in sleep onset and increased wakefulness that resemble the difficulties falling asleep at the beginning of the night, or initial insomnia, observed in humans after a stressful day. Eventually, insomniacs fall asleep because of the sleep pressure, as rats do. But later, as the night progresses, they usually experience insomnia characterized by decreased nREM sleep, frequent awakenings, and poor quality sleep, similar to what we observed in the stressed rats. […] EEG and EMG activity were recorded continuously to determine the behavioral state (wake, nREM or REM sleep) along several hours. Control rats (n=6) were injected with vehicle and also placed in a soiled cage and recorded. […] EEG and EMG activity were recorded continuously to determine the behavioral state (wake, nREM or REM sleep) along several hours, as explained above.", "note": "For at least one compound, name, drawing or mass did not settle the structure."}
{"smiles": "CCOc1nc2cccc(C(=O)O)c2n1Cc1ccc(-c2ccccc2-c2nnn[nH]2)cc1", "note": "[candesartan]", "values": [{"measurement": "brain activity in limbic areas, arousal regions and cortex", "setting": "brains from treated rats", "result": "less activity in the limbic areas as well as inhibition of the arousal regions and the cortex"}, {"measurement": "effect on sleep disturbances induced by stress", "setting": "validated rat model of stress-induced insomnia", "result": "ameliorate sleep disturbances induced by stress"}]}
